Measured values from PubChem BioAssay AID662 (National Center for Advancing Translational Sciences (NCATS), 2007).
The list shows a part of the results. These are further read-outs of the screen, such as a control signal, another cell line or another target. No call is given for them. Compounds called inactive in the main read-out are mostly missing here. The note in brackets gives the kind of curve behind each potency; many fits are weak.

Test: Cell signaling CRE-BLA (Fsk stim)
Conditions: CHO CRE-bla reporter (cAMP response element driving beta-lactamase), forskolin EC10, beta-lactamase ratio; measured here: 460 nm blue channel
How it was run: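 Modulation of forskolin-driven signalling is measured in CHO cells carrying a CRE-controlled beta-lactamase reporter. Cells are stimulated with EC10 NKH 477 in the presence of titrated compound for 3 h at 37 °C, then loaded with CCF4 for 2 h at room temperature.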

Row | SMILES | AC50
1 | COc1ccc(N(CC(=O)NCCSc2ccccn2)S(C)(=O)=O)cc1Cl | 12.6 µM [rising, partial curve]
2 | CCCOc1ccc([C@@H]2C3CN(C(=O)OCC)CC=C3C(C#N)=C(N)C2(C#N)C#N)cc1OC (some centres undefined) | 12.6 µM [rising, partial curve]
3 | COc1ccccc1CCn1c(=O)c(-c2cn(C)c3ccccc23)nc2cncnc21 | 0.398 µM [rising, full curve]
4 | CCn1c(SCC(=O)Nc2cccc(C)c2)nc2c(c1=O)SC(C)C2 (centres undefined) | 10 µM [rising, single point]
5 | COc1ccc(OC)c(-c2cc(C(=O)NCc3cccs3)no2)c1 | 3.16 µM [rising, full curve]
6 | CC1(C)Cc2ccccc2-c2nnc(SCC(=O)Nc3nc4ccccc4s3)n21 | 3.98 µM [rising, partial curve]
7 | Cc1ccc(C2c3sc(=O)[nH]c3SC3C(=O)NC(=O)C32)cc1 (centres undefined) | 1.58 µM [falling, full curve]
8 | CCN(C)c1ccc(/C=N\n2nnnc2N)cc1 | 12.6 µM [rising, partial curve]
9 | CCOC(=O)N1CCC(NC(=O)Cc2cn(C)c3ccccc23)CC1 | 0.631 µM [falling, full curve]
10 | CCOC(=O)C1Cc2c([nH]c3ccccc23)CN1 (centres undefined) | 10 µM [falling, partial curve]
11 | CCOC(=O)c1c(NC(=O)c2ccc(-n3cnnn3)cc2)sc2c1CCCC2 | 2.51 µM [rising, single point]
12 | CSc1nc2nc(C)cc(-c3ccccc3)n2n1 | 25.1 µM [rising, partial curve]
13 | CC(C)(C)n1nc2c(c1NC(=O)COc1ccc(Cl)cc1)CSC2 | 2.51 µM [falling, full curve, poor fit]
14 | CCCCOc1ccc(C(=O)NCc2ccco2)cc1 | 0.316 µM [falling, partial curve]
15 | CCOC(=O)C1CCCN(C(=O)C2CC(=O)N(c3ccc(C)cc3)C2)C1 (centres undefined) | 20 µM [falling, single point]
16 | CN(CC(=O)N1CC=C(c2ccccc2)CC1)S(=O)(=O)c1cnc[nH]1 | 0.0631 µM [falling, partial curve]
17 | COc1cccc(NC(=O)CSc2ccc3nnc(-c4ccncc4)n3n2)c1 | 12.6 µM [rising, partial curve]
18 | CCC1SC2=NCCN2C1(O)c1ccc(Cl)cc1 (centres undefined) | 31.6 µM [falling, partial curve, poor fit]
19 | COc1ccc(NC(=O)c2sc(SC)nc2N)cc1 | 10 µM [rising, partial curve]

Looked up above.
AC50 with COc1ccccc1CCn1c(=O)c(-c2cn(C)c3ccccc23)nc2cncnc21 is entered as 0.398 µM [rising, full curve]
AC50 with CCn1c(SCC(=O)Nc2cccc(C)c2)nc2c(c1=O)SC(C)C2 (centres undefined) is entered as 10 µM [rising, single point]
